Results reported in publication PMC6646309.
These are yes or no findings as the source states them, for the method shown. In cells and extracts the contact can be indirect. Sequences can lack the tags named with a protein.

By UniProt entry, the sequences of proteins in these tests, tags left out. Where a name states a change or a piece, a line headed by the entry shows the natural chain unless it says otherwise. Chains listed by the source or under a name are the forms on record and can include a tag or linker.
UniProt Q14694: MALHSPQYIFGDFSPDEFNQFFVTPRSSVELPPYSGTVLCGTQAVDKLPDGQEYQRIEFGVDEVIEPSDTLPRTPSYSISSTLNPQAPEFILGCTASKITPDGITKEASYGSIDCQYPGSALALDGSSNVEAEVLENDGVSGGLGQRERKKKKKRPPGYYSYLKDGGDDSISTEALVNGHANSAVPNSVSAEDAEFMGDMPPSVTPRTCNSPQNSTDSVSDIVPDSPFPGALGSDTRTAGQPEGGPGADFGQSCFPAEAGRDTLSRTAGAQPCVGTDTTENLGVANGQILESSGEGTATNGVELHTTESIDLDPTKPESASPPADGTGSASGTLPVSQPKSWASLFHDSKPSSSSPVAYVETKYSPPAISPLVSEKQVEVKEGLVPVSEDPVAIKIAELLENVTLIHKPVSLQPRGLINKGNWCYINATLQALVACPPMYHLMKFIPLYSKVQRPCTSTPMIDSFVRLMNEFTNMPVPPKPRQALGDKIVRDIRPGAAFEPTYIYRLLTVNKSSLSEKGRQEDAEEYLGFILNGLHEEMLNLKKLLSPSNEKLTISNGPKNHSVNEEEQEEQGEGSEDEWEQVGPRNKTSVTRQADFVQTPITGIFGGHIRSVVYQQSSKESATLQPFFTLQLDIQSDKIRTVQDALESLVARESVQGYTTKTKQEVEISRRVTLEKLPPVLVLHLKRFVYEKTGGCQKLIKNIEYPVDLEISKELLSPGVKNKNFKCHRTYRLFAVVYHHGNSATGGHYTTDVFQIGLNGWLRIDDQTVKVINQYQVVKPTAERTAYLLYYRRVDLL
Tau (Tau4R1N) (P10636-7, form named): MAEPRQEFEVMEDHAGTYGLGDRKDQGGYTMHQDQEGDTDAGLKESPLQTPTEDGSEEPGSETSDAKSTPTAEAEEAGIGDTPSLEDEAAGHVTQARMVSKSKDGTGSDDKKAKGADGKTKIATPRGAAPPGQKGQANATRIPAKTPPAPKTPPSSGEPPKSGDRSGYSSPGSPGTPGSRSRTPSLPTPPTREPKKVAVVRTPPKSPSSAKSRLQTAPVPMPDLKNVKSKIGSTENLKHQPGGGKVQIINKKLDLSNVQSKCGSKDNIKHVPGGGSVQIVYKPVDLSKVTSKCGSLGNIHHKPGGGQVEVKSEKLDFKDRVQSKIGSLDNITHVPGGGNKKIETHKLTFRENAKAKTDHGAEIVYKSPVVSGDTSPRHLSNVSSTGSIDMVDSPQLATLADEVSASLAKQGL

B1: T-cell intracellular antigen 1 (TIA1), FLAG-tagged (protein, UniProt P31483 1-386)
chain: MEDEMPKTLYVGNLSRDVTEALILQLFSQIGPCKNCKMIMDTAGNDPYCFVEFHEHRHAAAALAAMNGRKIMGKEVKVNWATTPSSQKKDTSSSTVVSTQRSQDHFHVFVGDLSPEITTEDIKAAFAPFGRISDARVVKDMATGKSKGYGFVSFFNKWDAENAIQQMGGQWLGGRQIRTNWATRKPPAPKSTYESNTKQLSYDEVVNQSSPSNCTVYCGGVTSGLTEQLMRQTFSPFGQIMEIRVFPDKGYSFVRFNSHESAAHAIVSVNGTTIEGHVVKCYWGKETLDMINPVQQQNQIGYPQPYGQWGQWYGNAQQIGQYMPNGWQVPAYGMYGQAWNQQGFNQTQSSAPWMGPNYGVQPPQGQNGSMLPNQPSGYRVAGYETQ

Biological target: ubiquitin-specific protease 10 (USP10), HA-tagged (UniProt Q14694)
Assay: co-IP; HT22 cells transfected with Tau4R1N plasmid along with HA-USP10 and/or FLAG-TIA1; lysed in NP-40 lysis buffer (1% NP-40, 125 mM Tris-HCl pH 7.2, 150 mM NaCl, 1 mM EDTA); immunoprecipitated with anti-HA; blots with anti-HA, anti-FLAG and anti-Tau (TAU-5)

| Molecule | binding |
| --- | --- |
| Tau (Tau4R1N) (from UniProt P10636-7 1-412) | no binding |
| B1 | no binding |
